Percent effect of library compounds

Amino acid sequences for entries named in this document (tags omitted). Residues count along the entry.
UniProt P9WPC5, whole entry: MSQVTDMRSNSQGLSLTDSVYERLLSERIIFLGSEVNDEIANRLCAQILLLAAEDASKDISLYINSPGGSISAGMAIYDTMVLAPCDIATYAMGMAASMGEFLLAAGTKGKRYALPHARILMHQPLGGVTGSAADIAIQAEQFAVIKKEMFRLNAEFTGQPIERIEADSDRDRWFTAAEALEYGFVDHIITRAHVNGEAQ
UniProt P9WPC3, whole entry partner: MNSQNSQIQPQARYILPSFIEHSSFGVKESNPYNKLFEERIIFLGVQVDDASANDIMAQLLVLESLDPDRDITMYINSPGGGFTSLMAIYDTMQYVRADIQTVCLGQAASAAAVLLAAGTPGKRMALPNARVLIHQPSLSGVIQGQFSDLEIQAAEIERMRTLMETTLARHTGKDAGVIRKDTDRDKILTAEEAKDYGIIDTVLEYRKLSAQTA
UniProt A4I591, 1-473: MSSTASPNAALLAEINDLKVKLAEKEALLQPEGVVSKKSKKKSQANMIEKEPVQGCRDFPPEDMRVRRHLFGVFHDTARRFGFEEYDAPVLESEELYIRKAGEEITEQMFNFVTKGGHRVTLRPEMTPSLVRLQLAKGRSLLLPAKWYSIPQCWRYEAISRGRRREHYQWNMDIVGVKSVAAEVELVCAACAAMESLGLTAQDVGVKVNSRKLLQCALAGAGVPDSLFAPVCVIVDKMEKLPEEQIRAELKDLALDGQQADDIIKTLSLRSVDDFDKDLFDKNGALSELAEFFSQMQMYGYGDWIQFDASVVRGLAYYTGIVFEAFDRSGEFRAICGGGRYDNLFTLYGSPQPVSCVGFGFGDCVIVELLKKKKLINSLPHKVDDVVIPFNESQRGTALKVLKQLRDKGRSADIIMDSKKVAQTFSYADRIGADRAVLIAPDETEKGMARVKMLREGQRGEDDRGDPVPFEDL

ClpP1P2: 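Protease assay of ClpP1P2, read by the AMC dye that it sets free. Target: ClpP1P2, Mycobacterium tuberculosis (UniProt P9WPC5 and UniProt P9WPC3). Tested at 50 µM. Higher reads as stronger inhibition, judged from the few compounds that gave an IC50. Most other retested compounds had strongly negative values. About 69,000 compounds were tested under these conditions; 0.015% (about 10) showed 50% or more at least once.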
LiHisRS: 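Histidine-tRNA ligase, Leishmania infantum (UniProt A4I591). Enzyme assay of histidyl-tRNA synthetase; the read-out is not stated. Tested at 30 µM. Higher reads as stronger inhibition (inferred: compounds with an IC50 in retests scored well above the rest). The assay is labelled LdHisRS but filed under L. infantum. Size under these conditions: about 69,000 compounds, about 410 of them at 50% or above in at least one test.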

Each number is a percent effect as filed. The controls that fix the scale are not given in the record; negative values are as filed. This is an unselected part of the compounds tested.

| # | compound | ClpP1P2 | LiHisRS |
|---|---|---|---|
| 1 | `CC(C)NC(=O)N1CCC2(CC1)CN(C(=O)NC(C)C)CCO2` | 6.175% | 2.759% |
| 2 | `COc1ccc(S(=O)(=O)C(F)(F)F)cc1NC(=O)CSC` | 3.5% | 19.48% |
| 3 | `Cn1cc(N2CC3(CCN(CC4CC4)CC3)OCC2=O)cn1` | -11.18% | 23.08% |
| 4 | `O=C1[C@@H]2CN(C3CCOCC3)C[C@H]2CCN1CC1CC1` | -9.932% | 3.883% |
| 5 | `CCC(=O)N1CC[C@H]2[C@H](C[C@@H](Cn3cccn3)N2c2nccs2)C1` | 6.163% | 32.69% |
| 6 | `CN(C)c1ccc(-c2cccc(-c3ccn(CCCO)n3)c2)nn1` | -10.66% | 21.43% |
| 7 | `CC(C)(C)C(=O)NS(=O)(=O)c1ccc(C#N)c(C(F)(F)F)c1` | 1.198% | 21.95% |
| 8 | `Cc1cc(C)cc(OCC(=O)N2CCCC2)c1` | -1.466% | 22.89% |
| 9 | `Cc1nn(C)c(C)c1NC(=O)CCn1ncc2c(C)cccc21` | -9.716% | 23.58% |
| 10 | `CC(C)n1cnnc1CN(C)C(=O)c1cc(COc2ccccc2)[nH]n1` | -3.959% | 17.65% |
| 11 | `CCC1COCCN1C(=O)CNC(=O)c1ccoc1C` (centres undefined) | -0.0695% | 11.67% |
| 12 | `COCC(=O)N1CC[C@H]2C[C@H](c3nc(C)no3)O[C@@H]2C1` | -0.8534% | 14.71% |
| 13 | `CN(C)CCNC(=O)C1Cc2nc(-c3ccccc3)sc2N1CC1CC1` (centres undefined) | -22.21% | 20.83% |
| 14 | `CCNS(=O)(=O)c1ccc(C)c(C(=O)N(CCC#N)Cc2ccco2)c1` | -6.942% | 4.11% |
| 15 | `Cc1nc(CN(CCc2ccccc2)C2CCN(C)CC2)no1` | -23.4% | 7.5% |
| 16 | `Cc1nnc(NC(=O)CN2CCCC2c2noc(C(C)C)n2)s1` (centres undefined) | -10.29% | 6.897% |
| 17 | `CC(C)Cc1noc(CN(C)C(=O)CCNC(=O)c2ccccc2F)n1` | -4.826% | 18% |
| 18 | `CCc1nnsc1C(=O)NCC1CN(CC(C)C)CCO1` (centres undefined) | -5.124% | 12% |
| 19 | `COCCNc1cc(C(=O)N2CCOCC2)nc(C)n1` | -13.3% | 7.08% |
| 20 | `COC(=O)C1CCN(C(=O)Cn2nc(C)nc2-c2ccccc2)CC1` | 6.632% | 17.33% |
| 21 | `CC(C)c1csc(C2CCCN(C(=O)c3ccc[nH]3)C2)n1` (centres undefined) | -7.895% | 13.19% |
| 22 | `Cc1[nH]nc2ncc(C(=O)N3CCN(C(C)(C)C)CC3)cc12` | 0.1959% | 19.4% |
| 23 | `CC(=O)N(Cc1c(F)cccc1F)C1CCCC1` | -6.315% | 3.226% |
| 24 | `CSc1ncnc(NCc2cccs2)c1C#N` | 14.58% | 10.75% |
| 25 | `O=C(c1ccccc1)N1CCOC2CNCC[C@H]21` (some centres undefined) | 0.6759% | 6.306% |
| 26 | `Cc1noc(C)c1CN1CC[C@H]2OCC[C@@]2(C(=O)NC2CCCC2)C1` | 13.26% | 13.76% |
| 27 | `Cc1cccnc1CN(C)CC1(O)CCCN(CC2CCCCC2)C1=O` (centres undefined) | -21.14% | 17.14% |
| 28 | `COCCN1CCC(CNC(=O)C2(S(C)(=O)=O)CCCC2)CC1` | 6.213% | 1.754% |
| 29 | `Cc1cccc2cc(C(=O)N3CCN(S(=O)(=O)N(C)C)CC3)n(C)c12` | -3.421% | 3.03% |
| 30 | `N#Cc1ccc(NCC(=O)Nc2ncn(Cc3cccnc3)n2)cc1` | -10.82% | 10.42% |
| 31 | `O=C(N1CCCO1)[C@]12COC[C@H]1CN(Cc1nccs1)C2` | 1.531% | 19.66% |
| 32 | `Cc1cnc(C(=O)N2C[C@H](N3CCOCC3)[C@@H]3OCCC[C@@H]32)cn1` | 0.3395% | 7.921% |
| 33 | `Cc1cc(C2CCCN(CCCS(N)(=O)=O)C2)n[nH]1` (centres undefined) | -5.56% | 1.786% |
| 34 | `CCN1CCN(c2ccc(C(=O)NC(C)CCOC)cc2)CC1` (centres undefined) | -5.641% | -4.444% |
| 35 | `CCc1nc(C)sc1CN(Cc1ccncc1)C1CCN(C)CC1` | -13.83% | 8.602% |
| 36 | `Cc1ccc(Cc2cnc(NC(=O)C3CNC(=O)N3)s2)cc1F` (centres undefined) | -1.252% | 16.22% |
| 37 | `Cc1csc(CNC(=O)N(C)Cc2ccc3c(c2)OCCO3)n1` | -11.14% | 9.917% |
| 38 | `Cc1ccc(CN(CCN(C)C)Cc2c(C)nc3sccn23)o1` | -16.82% | 6.993% |
| 39 | `Cc1noc(C)c1C(=O)NCCN1CCN(S(C)(=O)=O)CC1` | 2.787% | 27.4% |
| 40 | `CC(CNC(=O)CCc1ccccn1)c1ccsc1` (centres undefined) | -11.35% | 12% |
| 41 | `CCc1ccccc1Nc1noc2c1CN(C(=O)c1ccn(C)n1)CC2` | 2.46% | 6.993% |
| 42 | `Cn1cc(CC2CCN(C(=O)NCc3cn4ccsc4n3)C2)cn1` (centres undefined) | -9.866% | 22.86% |
| 43 | `Cn1nccc1-c1ccc2nc(C3CCN(CCO)CC3)nn2c1` | 1.132% | 15.09% |
| 44 | `Cn1ccnc1CNC(=O)c1cnc(C2CCNCC2)cn1` | -2.333% | 15.49% |
| 45 | `CC(=O)NC1CCN(c2ccc(C#N)cc2C(F)(F)F)CC1` | 3.62% | 14.14% |
| 46 | `CCn1cnnc1C1CCN(C(=O)c2ccc3c(c2)nnn3C)CC1` | -2.59% | -6.742% |
| 47 | `CC(C)(C)C(=O)N1CCC2(CNS(=O)(=O)c3cnccc3O2)C1` (centres undefined) | 28.91% | 15.17% |
| 48 | `CC(C(N)=O)N(C)CCCc1cc(-c2ccccc2)no1` (centres undefined) | -6.758% | 12.31% |
| 49 | `COCCc1noc(CN2CCCCC2Cn2cc(C)cn2)n1` (centres undefined) | -0.8975% | 4.255% |
| 50 | `CCOCC1c2c(cnn2C)CCN1C(=O)c1cc(C)on1` (centres undefined) | -3.87% | 2.703% |
| 51 | `CC(C)C(C)NC(=O)Nc1cccn(C)c1=O` (centres undefined) | -10.03% | 63.39% |
| 52 | `O=C(O)c1cc2c(nc1-c1ccoc1)CCN(Cc1ccco1)CC2` | -6.727% | 17.65% |
| 53 | `CO[C@H]1C[C@@H]2CN(C(=O)c3cccc4c3OCCO4)C[C@@H]2C1` | -3.677% | -1.408% |
| 54 | `CC(NCc1cn(CCC(N)=O)c2ccccc12)c1nncn1C` (centres undefined) | 11.2% | 11.67% |
| 55 | `Cc1cnn(C2CCCN(C(=O)Cc3cn4ccccc4n3)C2)c1` (centres undefined) | 3.868% | 21.62% |
| 56 | `Cc1cccc(CNC(CN2CCN(C)CC2)c2ccccc2)c1` (centres undefined) | -8.019% | 20.75% |
| 57 | `O=C(c1ccncc1)N1CCN2C[C@H](Oc3cccc(F)c3)C[C@H]2C1` | -27.22% | 16.67% |
| 58 | `CCOCC1c2c(ncn2C(C)C)CCN1C(=O)C1CC1` (centres undefined) | 0.04611% | 11.11% |
| 59 | `CC(=O)N1CCCC2(C1)CN(C(=O)C1CCCCC1)CCO2` (centres undefined) | -17.19% | 17.48% |
| 60 | `Cc1ccc(C(NC(=O)CCCN2CCCCC2)C(=O)O)cc1` (centres undefined) | -0.5299% | 17.7% |
| 61 | `CCc1nc(C)c(CN2CCN(c3ncnc4c(C)csc34)CC2)[nH]1` | -7.922% | 20% |
| 62 | `CCc1nc(C2CCCN2C(=O)CCc2nc(C(C)(C)C)no2)no1` (centres undefined) | -18% | 4.464% |
| 63 | `O=C(N[C@@H]1CN[C@H]2CCCO[C@H]21)c1cccnc1` | -18.83% | 8.065% |
| 64 | `CC(NC(=O)CNS(C)(=O)=O)c1ccccc1Oc1ccccc1` (centres undefined) | -0.6681% | 11.71% |
| 65 | `O=C(c1cc2ccccc2[nH]1)N1CCCCC1Cn1cccn1` (centres undefined) | -20.74% | 0% |
| 66 | `Cc1nnc(N2C[C@H](OCCCn3cccn3)[C@H]3OCCC[C@H]32)s1` | -6.286% | 21.62% |
| 67 | `c1ccc(-c2nnc3n2CCN(c2nc(C4CC4)ns2)C3)cc1` | -4.078% | 15.18% |
| 68 | `CCCNc1cc(-c2c[nH]nc2C2CCN(C(=O)C3CCC3)C2)ccn1` (centres undefined) | 6.585% | 16.78% |
| 69 | `COCC(=O)N1CCC2(CC1)c1ccccc1[C@@H](N1CCSCC1)[C@@H]2O` | -0.9266% | 0% |
| 70 | `CSc1ccc(C(C(=O)O)N2CCC(C(=O)N3CCCC3)CC2)cc1` (centres undefined) | -23.98% | 3.226% |
| 71 | `CCCN1CCN(Cc2cccc(OC(C)C)c2)[C@H]2CS(=O)(=O)C[C@H]21` | -21.76% | 10.17% |
| 72 | `O=C(NCCc1cccs1)[C@H]1CO[C@H]2CCN(C3CCC3)C[C@H]2C1` | -6.53% | 10% |

Some entries from above, unchanged:

compound,ClpP1P2,LiHisRS
Cc1cc(C)cc(OCC(=O)N2CCCC2)c1,-1.466%,22.89%
CCC1COCCN1C(=O)CNC(=O)c1ccoc1C (centres undefined),-0.0695%,11.67%
CCCN1CCN(Cc2cccc(OC(C)C)c2)[C@H]2CS(=O)(=O)C[C@H]21,-21.76%,10.17%
N#Cc1ccc(NCC(=O)Nc2ncn(Cc3cccnc3)n2)cc1,-10.82%,10.42%
CC(=O)N(Cc1c(F)cccc1F)C1CCCC1,-6.315%,3.226%
COCCc1noc(CN2CCCCC2Cn2cc(C)cn2)n1 (centres undefined),-0.8975%,4.255%

Measurements from “University of Dundee, Small-Polar-MMV Screening Library” (2021), ChEMBL document CHEMBL3988442.